Construct, isoform or probe ends are uncertain for at least one entry. For some assays here: Results from cells or extracts need not show a direct contact. For some assays here: Negatives hold for the conditions tested.

Amino acid sequences for entries named in this document (tags omitted). A change or cut given only in a name is not applied to a line headed by its entry. Residues count along the entry.
UniProt P16422, 24-314, stated change not applied: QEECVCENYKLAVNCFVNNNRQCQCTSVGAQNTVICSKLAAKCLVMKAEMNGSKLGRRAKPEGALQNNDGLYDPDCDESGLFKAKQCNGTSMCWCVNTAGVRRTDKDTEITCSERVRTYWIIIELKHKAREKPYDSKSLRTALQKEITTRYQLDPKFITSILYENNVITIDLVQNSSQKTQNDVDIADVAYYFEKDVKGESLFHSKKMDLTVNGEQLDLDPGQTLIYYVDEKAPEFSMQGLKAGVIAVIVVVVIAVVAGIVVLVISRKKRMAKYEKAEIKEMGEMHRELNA
UniProt Q9UPY3: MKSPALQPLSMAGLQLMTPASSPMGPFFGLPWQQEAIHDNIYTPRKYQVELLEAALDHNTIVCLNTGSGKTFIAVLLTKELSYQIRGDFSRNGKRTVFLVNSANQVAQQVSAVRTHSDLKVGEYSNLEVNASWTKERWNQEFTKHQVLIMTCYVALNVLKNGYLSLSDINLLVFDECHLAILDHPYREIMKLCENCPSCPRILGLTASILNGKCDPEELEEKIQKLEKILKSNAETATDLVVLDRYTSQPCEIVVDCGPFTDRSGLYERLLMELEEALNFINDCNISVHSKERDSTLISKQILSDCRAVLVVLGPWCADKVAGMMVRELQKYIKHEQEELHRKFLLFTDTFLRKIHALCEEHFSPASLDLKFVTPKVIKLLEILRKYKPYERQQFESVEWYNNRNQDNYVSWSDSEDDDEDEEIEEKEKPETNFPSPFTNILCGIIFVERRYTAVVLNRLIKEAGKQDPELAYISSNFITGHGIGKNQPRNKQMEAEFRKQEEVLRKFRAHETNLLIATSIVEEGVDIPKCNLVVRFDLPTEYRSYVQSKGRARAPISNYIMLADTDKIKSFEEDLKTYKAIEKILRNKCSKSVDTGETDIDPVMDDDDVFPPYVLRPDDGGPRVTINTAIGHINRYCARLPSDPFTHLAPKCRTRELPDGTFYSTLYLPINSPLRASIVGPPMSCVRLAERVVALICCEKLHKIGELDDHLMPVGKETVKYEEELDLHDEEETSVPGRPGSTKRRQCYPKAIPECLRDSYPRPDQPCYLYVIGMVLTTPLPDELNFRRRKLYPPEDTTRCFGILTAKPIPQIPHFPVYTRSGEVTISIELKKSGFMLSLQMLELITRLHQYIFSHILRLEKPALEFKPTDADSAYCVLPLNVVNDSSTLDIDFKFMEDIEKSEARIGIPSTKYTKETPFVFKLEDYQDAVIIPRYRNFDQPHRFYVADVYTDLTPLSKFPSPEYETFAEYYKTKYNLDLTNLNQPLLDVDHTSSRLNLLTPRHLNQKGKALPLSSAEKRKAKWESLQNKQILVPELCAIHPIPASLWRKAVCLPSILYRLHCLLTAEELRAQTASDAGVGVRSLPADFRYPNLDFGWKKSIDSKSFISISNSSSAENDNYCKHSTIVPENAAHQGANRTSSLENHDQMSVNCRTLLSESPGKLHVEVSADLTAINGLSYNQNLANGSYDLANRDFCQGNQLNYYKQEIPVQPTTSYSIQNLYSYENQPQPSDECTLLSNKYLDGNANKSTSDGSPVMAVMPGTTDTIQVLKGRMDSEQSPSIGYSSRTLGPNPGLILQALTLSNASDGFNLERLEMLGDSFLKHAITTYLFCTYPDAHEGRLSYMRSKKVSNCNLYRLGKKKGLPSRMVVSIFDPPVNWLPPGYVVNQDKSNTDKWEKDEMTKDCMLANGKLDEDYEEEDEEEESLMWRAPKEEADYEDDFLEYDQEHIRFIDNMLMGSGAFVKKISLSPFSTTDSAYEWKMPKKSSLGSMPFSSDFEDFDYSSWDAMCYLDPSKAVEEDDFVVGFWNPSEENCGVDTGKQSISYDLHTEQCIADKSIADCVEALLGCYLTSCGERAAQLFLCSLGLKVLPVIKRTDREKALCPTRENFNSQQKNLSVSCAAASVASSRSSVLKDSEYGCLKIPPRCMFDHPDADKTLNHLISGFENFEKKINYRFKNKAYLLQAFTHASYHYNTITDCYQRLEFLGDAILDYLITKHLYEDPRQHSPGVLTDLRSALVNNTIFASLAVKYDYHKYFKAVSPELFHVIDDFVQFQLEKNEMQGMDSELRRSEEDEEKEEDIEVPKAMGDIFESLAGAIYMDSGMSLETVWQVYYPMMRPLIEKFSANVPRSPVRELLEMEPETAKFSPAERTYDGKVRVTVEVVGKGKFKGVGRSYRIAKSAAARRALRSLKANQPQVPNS

The target in data set [1] is EpCAM (native, on the surface of human cancer cell lines T47D, MCF7, MDA-MB-231, HT29) (Homo sapiens) (UniProt P16422). The experiment in a line: binding assay. The following applies: protein on the cell surface.
For data set [2] the target is unchanged. The data set is described as follows: flow cytometry. The following applies: protein on the cell surface. For orientation: Flow cytometry measures light scatter and fluorescence of single cells or particles in a stream.
The target of data set [3] is Dicer (recombinant) (UniProt Q9UPY3). The data set is described as follows: enzyme reaction in vitro. As to conditions: 2'-F pyrimidines in long strand; chimera cleaved by recombinant Dicer to 21-mer siRNA; purified recombinant protein; label: 5'-DY647 on short strand; variant of Aptamer 23 (Ep23).

Consider ACGUAUCCCUUUUCGCGUA [Aptamer 23 (Ep23)], for which the binding result in data set [1] (2'-F pyrimidines, staining of paraffin xenograft sections, 100 nM, 37 C: T47D +++, MCF7 ++, MDA-MB-231 +, HT-29 +++, U118MG -, label: 5'-TYE665 or 5'-DY647) is on record as “binds”. Also, the Kd (usually the concentration at which binding is half-saturated) stood at 37 nM in data set [2] (2'-F pyrimidines, HT29 cells, EpCAM-negative U118MG >1000 nM, label: 5'-TYE665 or 5'-DY647); 63.7 nM in data set [2] (2'-F pyrimidines, MCF7 cells, EpCAM-negative U118MG >1000 nM, label: 5'-TYE665 or 5'-DY647); 86.7 nM in data set [2] (2'-F pyrimidines, MDA-MB-231 cells, EpCAM-negative U118MG >1000 nM, label: 5'-TYE665 or 5'-DY647); 41.2 nM in data set [2] (2'-F pyrimidines, T47D cells, EpCAM-negative U118MG >1000 nM, label: 5'-TYE665 or 5'-DY647).

On to “ACGUAUCCCUUUUCGCGUAAAAUGUAGAGAUGCGGUGGUCCUU”, for which the binding result in data set [1] (2'-F pyrimidines in long strand, confocal microscopy, internalised by EpCAM-positive HT-29 cells, not by EpCAM-negative HEK-293T, label: 5'-DY647 on short strand, variant of Aptamer 23 (Ep23)) is given as “binds”. Also, the “activity on this sequence” value in data set [3] is recorded as “active”.

Turning to GCGACUGGUUACCCGGUCG [DT3 (EpDT3)], in data set [1] (2'-F pyrimidines, 3'-inverted dT, staining of paraffin xenograft sections, 100 nM, 37 C: T47D ++, MCF7 +, MDA-MB-231 +, HT-29 -, U118MG -, label: 5'-DY647 (or 3'-FITC)), the binding result is “binds”. In addition, the Kd in data set [2] (2'-F pyrimidines, 3'-inverted dT, HT29 cells, EpCAM-negative U118MG >1000 nM, label: 5'-DY647 (or 3'-FITC)) worked out at 158 nM; in data set [2] (2'-F pyrimidines, 3'-inverted dT, MCF7 cells, EpCAM-negative U118MG >1000 nM, label: 5'-DY647 (or 3'-FITC)), 50 nM; in data set [2] (2'-F pyrimidines, 3'-inverted dT, MDA-MB-231 cells, EpCAM-negative U118MG >1000 nM, label: 5'-DY647 (or 3'-FITC)), 98.9 nM; in data set [2] (2'-F pyrimidines, 3'-inverted dT, T47D cells, DPBS, MgCl2, tRNA, Scatchard, EpCAM-negative U118MG >1000 nM, label: 5'-DY647 (or 3'-FITC)), 74.2 nM.

Consider GCGACUGGUUACCCGGUCGT [control aptamer], for which, in data set [1] (2'-OMe at positions as printed (mGCmGACUmGmGUUmACCCmGmGUCmGdT), 3' dT, no staining of any xenograft section, label: 5'-DY647, variant of DT3 (EpDT3)), the binding result is “no binding”. Moreover, the Kd in data set [2] (2'-OMe at positions as printed (mGCmGACUmGmGUUmACCCmGmGUCmGdT), 3' dT, HT29 cells, label: 5'-DY647, variant of DT3 (EpDT3)) was 837 nM; in data set [2] (2'-OMe at positions as printed (mGCmGACUmGmGUUmACCCmGmGUCmGdT), 3' dT, MCF7 cells, label: 5'-DY647, variant of DT3 (EpDT3)), more than 1000 nM; in data set [2] (2'-OMe at positions as printed (mGCmGACUmGmGUUmACCCmGmGUCmGdT), 3' dT, MDA-MB-231 cells, label: 5'-DY647, variant of DT3 (EpDT3)), more than 1000 nM; in data set [2] (2'-OMe at positions as printed (mGCmGACUmGmGUUmACCCmGmGUCmGdT), 3' dT, T47D cells, U118MG also >1000 nM, label: 5'-DY647, variant of DT3 (EpDT3)), more than 1000 nM.
